Source: PubChem BioAssay AID504834 (National Center for Advancing Translational Sciences (NCATS), 2011)
Hit rate of the full screen: of about 320,000 compounds, about 22,000 (6.9%) were called active. Inconclusive means that the source gave no clear call. Such entries were picked first, then a sample of the others. The call rests on the fitted dose curve; in most records, active means well fitted inhibition curve with a large enough effect; inconclusive means small, poorly fitted or top-dose-only effect, or another doubt; inactive means no such curve, though single readings can be large or run the other way. Where the call is inconclusive, the potency comes from a doubtful curve fit.

Assay: Primary qHTS for delayed death inhibitors of the malarial parasite plastid, 96 hour incubation
Details: P. falciparum luciferase reporter growth; series mostly up to 28.7 µM
Method in brief: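 Infected RBCs, 2% Hct / 0.05% parasitemia final; luciferase-reporter P. falciparum; cpd 96 h, 37 C, 5% CO2; luciferase detection reagent; luminescence.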
Potency means the concentration at half of the fitted maximal effect.

Row | Structure (SMILES) | Potency
1 | C=CCNS(=O)(=O)c1ccc(OCC(=O)OCC)cc1 | active: 2.33 µM
2 | CC(C)c1nnc(NC(=O)COc2ccc3c(c2)OCO3)s1 | inactive
3 | COc1ccc(C2=CC3=C(Br)C(=O)C(C)(OC(=O)c4ccco4)C(=O)C3=CO2)cc1 (configuration not stated) | inactive
4 | O=C(NCC(=O)N1CCC2(CC1)NCCc1[nH]cnc12)c1ccc2ccccc2c1 | inactive
5 | COc1cc(C2NC(=O)NC(C)=C2C(=O)OC2CCCC(C)C2)cc(Br)c1O (configuration not stated) | inconclusive: 6.57 µM [inhibitor, partial curve, poor fit]
6 | CCN1N=C(C)C=C(c2ccccc2)n2c1nc1ccccc12 | inactive
7 | CCOC(=O)C1=C(CC)Nc2ccccc2N=C1N | inconclusive: 0.0329 µM [inhibitor, full curve, poor fit]
8 | CCOC(=O)c1[nH]c(C)c(C(=O)NCc2ccccn2)c1C | inconclusive: 0.828 µM [inhibitor, full curve, poor fit]
9 | Cc1oc(-c2ccc(Cl)cc2)nc1CN1CCC(C(=O)NCc2cccs2)CC1 | inconclusive: 4.65 µM [inhibitor, partial curve, poor fit]
10 | Cc1cccc(COc2ccc(/C=N/NC(=O)c3nnn(-c4nonc4N)c3CN3CCCCC3)cc2)c1 | inactive
11 | Cc1ccc(C)c(C(=O)CN2C(=O)c3ccccc3C2=O)c1 | inactive
12 | COC(=O)C1(S(=O)(=O)c2ccc(C)cc2)CCOCC1 | inconclusive: 3.7 µM [inhibitor, partial curve, poor fit]
13 | O=C(Cc1c[nH]c2ccccc12)NCc1ccc(Cl)cc1Cl | inactive
14 | Cc1ccc(C2N(c3cccc(Cl)c3)C(=O)N3CCCN23)cc1 (configuration not stated) | inconclusive: 11.7 µM [inhibitor, single point]
15 | Oc1ccc(C[C@@H]2CNCCN2CC2CCCCC2)cc1 | inconclusive: 11.7 µM [inhibitor, single point]
16 | CN(C)CCN1C(=O)c2oc3ccccc3c(=O)c2C1c1ccc(F)cc1 (configuration not stated) | inconclusive: 10.4 µM [inhibitor, single point]
17 | COc1ccc(S(=O)(=O)N2CCN(C(=O)c3ccc([N+](=O)[O-])o3)CC2)cc1 | inconclusive: 10.4 µM [inhibitor, single point]
18 | O=c1oc2ccc(Br)cc2cc1S(=O)(=O)c1ccc(F)cc1 | inconclusive: 14.7 µM [inhibitor, partial curve, poor fit]
19 | CSc1ccccc1C(=O)Nc1cccc([N+](=O)[O-])c1 | inconclusive: 0.37 µM [inhibitor, partial curve, poor fit]
20 | Cc1cc(OC(=O)c2ccc(S(=O)(=O)N3CCOCC3)cc2)c([N+](=O)[O-])c(=O)[nH]1 | inconclusive: 0.233 µM [inhibitor, full curve, poor fit]
21 | CCC1Oc2ccc(C)cc2N(CC(=O)NCc2cc(OC)ccc2OC)C1=O (configuration not stated) | inactive
22 | Cc1ccccc1Nc1nnc(-c2ccc(C(=O)NCCO)cc2)c2ccccc12 | inactive
23 | CC(=O)[C@@H]1[C@@H]2C(=O)N(c3ccc(F)c(Cl)c3)C(=O)[C@@H]2C2c3ccccc3C=CN21 (some centres not stated) | inconclusive: 18.5 µM [inhibitor, single point]
24 | COCCCNCC(=O)Nc1sc(C)c(C)c1C(=O)OC | inconclusive: 0.415 µM [inhibitor, partial curve, poor fit]

Row | Structure (SMILES) | Potency
25 | CCCC(=O)C1=C(O)C(C(=O)OC)C(C)(C)CC1=Nc1ccncc1 (configuration not stated) | inconclusive: 4.15 µM [inhibitor, partial curve, poor fit]
26 | Cn1c(=O)cc(OCCCC(=O)NCCC2=CCCCC2)c2ccccc21 | inconclusive: 18.5 µM [inhibitor, single point]
27 | CN(C)C(=O)CSc1nnc(Cc2ccccc2)n1Cc1ccco1 | inconclusive: 9.28 µM [inhibitor, single point]
28 | O=C(Nc1cccc(-c2cnc3ccccc3n2)c1)c1ccccc1 | inactive
29 | Cn1c2ccccc2c2cc(/C=N/NC(=O)c3ccc(N)cc3)ccc21 | inconclusive: 18.5 µM [inhibitor, single point]
30 | C=CCc1cc(Cl)ccc1OCCOCCNC(C)CC (configuration not stated) | inconclusive: 4.15 µM [inhibitor, single point]
31 | CCOC(=O)c1sc(N/N=C/c2ccc(N(C)C)cc2)nc1C | inconclusive: 1.17 µM [inhibitor, partial curve]
32 | Cc1ccc(S(=O)(=O)Nc2ccc(C(=O)Nc3ccncc3)cc2)cc1 | active: 10.4 µM
33 | CCn1c(SCC(=O)N(C)C)nc2cc(S(=O)(=O)N3CCCCC3)ccc21 | inconclusive: 4.65 µM [inhibitor, partial curve]
34 | CC(=O)c1ccc(NC(=O)CSc2nc(=O)cc(N)n2-c2ccccc2)cc1 | inactive
35 | Cc1nn(C(C)C(=O)NCCCN2CCCC2)c(=O)c2nn(-c3ccccc3)c(C)c12 (configuration not stated) | inconclusive: 3.29 µM [inhibitor, partial curve, poor fit]
36 | COc1cccc2sc(N(CCCN(C)C)C(=O)CCS(=O)(=O)c3ccccc3)nc12 | inconclusive: 0.828 µM [inhibitor, partial curve]
37 | CC(NC(=O)COC(=O)COc1cccc2c1OC(C)(C)C2)c1ccccc1 (configuration not stated) | inactive
38 | COc1ccc(/C=N/Nc2nc(C)cc(-c3ccccc3)n2)cc1OC | inconclusive: 18.5 µM [inhibitor, single point]
39 | COc1ccc(OCC(=O)Nc2cccc(NC(=O)c3ccco3)c2)cc1 | inactive
40 | COc1c(C)cc(C(=O)C2CCCN(S(=O)(=O)c3c(C)noc3C)C2)cc1C (configuration not stated) | inconclusive: 13.1 µM [inhibitor, partial curve, poor fit]
41 | CCOC(=O)c1sc(NCCNc2nc(C)c(C(=O)OCC)s2)nc1C | inconclusive: 14.7 µM [inhibitor, partial curve, poor fit]
42 | O=C(NCCCN1CCCC1=O)c1cc2ccccc2o1 | inactive
43 | O=C(NNC(=O)c1cccc([N+](=O)[O-])c1)c1ccncc1 | inconclusive: 10.4 µM [inhibitor, single point]
44 | COc1ccc(Cl)cc1NC(=O)[C@@H]1CCCN1C(=O)c1cccs1 | inconclusive: 11.7 µM [inhibitor, single point]
45 | CCOC(=O)c1cc2c(ccn2C)n1CC(=O)N1CCN(c2ccccc2)CC1 | inactive
46 | CC(=O)NC1C(=O)N(CCN2CCOCC2)c2ccc(C)cc21 (configuration not stated) | inconclusive: 18.5 µM [inhibitor, single point]
47 | O=C(NC1CCN(C(=S)Nc2ccc(F)cc2)CC1)c1ccco1 | inactive
48 | CC(Oc1ccc(Br)cc1)C(=O)NCC(C)(C)N1CCOCC1 (configuration not stated) | inactive

A second format for some results above:
Row,Structure (SMILES),Potency
37,CC(NC(=O)COC(=O)COc1cccc2c1OC(C)(C)C2)c1ccccc1 (configuration not stated),inactive
45,CCOC(=O)c1cc2c(ccn2C)n1CC(=O)N1CCN(c2ccccc2)CC1,inactive

Next part:

Row | Structure (SMILES) | Potency
49 | CCOc1c(Cl)cc(C(=O)Nc2ccccc2-c2ccccc2)cc1Cl | inactive
50 | COCCn1ccc(O)c(Cc2ccc(Cl)cc2)c1=O | inconclusive: 14.7 µM [inhibitor, partial curve, poor fit]
51 | COc1cccc([C@@H]2CC=C(C(=O)O)[C@H](c3cccc(Cl)c3)N2S(=O)(=O)c2ccc(C)cc2)c1 | active: 11.7 µM
52 | CCOc1ccc(-c2cc(C(=O)NCCCn3ccnc3)c3cc(Br)ccc3n2)cc1 | inconclusive: 13.1 µM [inhibitor, single point]
53 | CCN(CC)S(=O)(=O)c1ccc(C(=O)OCCN2C(=O)CCC2=O)cc1 | inactive
54 | COc1ccc2ccc(O)c(CN(C)CC(=O)Nc3ccccc3C(F)(F)F)c2c1 | inconclusive: 18.5 µM [inhibitor, single point]
55 | CN(Cc1ccccc1NC(=O)c1ccc(S(=O)(=O)N(C)C)cc1)C1CCCCC1 | inconclusive: 9.28 µM [inhibitor, single point]
56 | CCOc1ccc(CN(C)Cc2cc(=O)oc3cc(C)c(Cl)cc23)cc1 | inconclusive: 18.5 µM [inhibitor, single point]
57 | CN(C)S(=O)(=O)c1cc(NC(=O)COC(=O)CCSc2ccc(Cl)cc2)ccc1Cl | inconclusive: 18.5 µM [inhibitor, single point]
58 | CC1(C)CC(=O)C/C(=N\NC(=O)C2CC2c2ccccc2)C1 (configuration not stated) | inactive
59 | Brc1ccc(-c2ncc(-c3ccccc3)cn2)cc1 | inconclusive: 18.5 µM [inhibitor, single point]
60 | COCC1CCN(C(=O)c2oc3c(F)cccc3c2C)C1 (configuration not stated) | inconclusive: 18.5 µM [inhibitor, single point]
61 | Nc1nonc1-n1nnc(C(=O)N/N=C/c2ccc(Br)cc2)c1-c1ccc2c(c1)OCO2 | active: 0.0586 µM
62 | CCOCCCNC(=O)/C(C#N)=C/c1ccc(-c2ccc(S(=O)(=O)N3CCOCC3)cc2)o1 | active: 13.1 µM
63 | Cc1ccc(CNC(=O)C2CCN(S(=O)(=O)c3ccc4c(c3)OCCCO4)CC2)cc1 | inconclusive: 10.4 µM [inhibitor, single point]
64 | CCOc1cc2c(cc1OCC)C(c1ccccc1)N(c1ccc(C(=O)O)cc1)C(=O)C2 (configuration not stated) | inconclusive: 1.85 µM [inhibitor, partial curve, poor fit]
65 | COc1ccc(-c2cnnc(N/N=C/c3ccc(C)o3)n2)cc1 | active: 4.15 µM
66 | COCc1c(Br)c(C)nc2sc3c(=O)[nH]nnc3c12 | inactive
67 | CCN1CCc2ccccc2C1 | inactive
69 | COc1cccc(CNC2CCCCCCC2)c1OC | inactive
70 | CNC(=O)NC(=O)C(C)OC(=O)c1c2c(nc3ccccc13)/C(=C/c1cccs1)CC2 (configuration not stated) | inactive
71 | O=C(NCCSc1ncc(-c2ccc(F)cc2)[nH]1)c1ccc2c(c1)OCO2 | inactive
72 | COCC(C)N1CCC(n2nccc2NC(=O)CCCc2ccccc2)CC1 (configuration not stated) | inconclusive: 10.4 µM [inhibitor, single point]

Quoted from the listing:
Under Potency, COc1ccc(/C=N/Nc2nc(C)cc(-c3ccccc3)n2)cc1OC has inconclusive: 18.5 µM [inhibitor, single point]
Under Potency, Cn1c2ccccc2c2cc(/C=N/NC(=O)c3ccc(N)cc3)ccc21 has inconclusive: 18.5 µM [inhibitor, single point]
Under Potency, COCc1c(Br)c(C)nc2sc3c(=O)[nH]nnc3c12 has inactive
Under Potency, Cc1ccccc1Nc1nnc(-c2ccc(C(=O)NCCO)cc2)c2ccccc12 has inactive
